Reference: article PMC6116569, “Activity of Vsr endonucleases encoded by Neisseria gonorrhoeae FA1090 is influenced by MutL and MutS proteins” (BMC Microbiology, 2018)

Assays:
[1] = target: V.NgoAXIV endonuclease, purified (ngoAXIVV gene in pQE-30) (N. gonorrhoeae FA1090); test: pull-down; protein affinity chromatography: 250 μg V.NgoAXIII, V.NgoAXIV or MutLNgo coupled to Affi-Gel 10; 250 μg His-tagged MutLNgo or MutS applied in 25 mM Tris pH 7.5, 50 mM NaCl with 2 mM ATP and 5 mM MgCl2; washed with the same buffer, eluted with 250 mM NaCl; fractions blotted with an anti-His-Tag antibody; both purified
[2] = target: V.NgoAXIII endonuclease, purified (ngoAXIIIV gene in pET28a(+)) (N. gonorrhoeae FA1090); test: as above

Row | binding [1] | binding [2] | Binder
1 | no binding (tested: 250 μg MutS applied) | no binding (tested: 250 μg MutS applied) | MutS protein of N. gonorrhoeae FA1090, His-tagged, purified (plasmid pAK21) (protein, UniProt Q5F5J4 1-864) MSKSAVSPMMQQYLGIKAQHTDKLVFYRMGDFYELFLDDAVEAAKLLDITLTTRGQMDGVPIKMAGVPFHAAEQYLARLVKLGKSVAICEQVGEVGAGKGPVERKVVRIVTPGTLTDSALLEDKETNRIVAVSPDKKYIGLAWASLQSGEFKTKLTTADKLNDELARLQAAEILLPDSKNAPQLQTASGVTRLNAWQFAADAGEKLLTEYFGCQDLRGFGLDSKEHAVSIGAAGALLNYIRLTQNLMPQHLDGLSLETDSQYIGMDAATRRNLEITQTLSGKKTPTLFSILDGCATHMGSRLLALWLHHPLRNRAHIRARQEAVTALESQYEPLQCHLKSIADIERIAARIAVGNARPRDLASLRDSLFELAQIDLSATGSSLLETLKAVFPETLPVAETLKAAVMPEPSVWLKDGNVINHGFHPELDELRRIQNHGDEFLLDLEAKERERTGLSTLKVEFNRVHGFYIELSKTQAEQAPADYQRRQTLKNAERFITPELKAFEDKVLTAQDQALALEKQLFDGVLKNLRTALPQLQKAAKAAAALDVLSTFSALAKERNFVRPEFADYPVVHIENGRHPVVEQQVRHFTANHTDLDHKHRLMLLTGPNMGGKSTYMRQVALIVLLAHTGCFVPADAATIGPVDQIFTRIGASDDLASNRSTFMVEMSETAYILHHATEQSIVLMDEVGRGTSTFDGLALAHAIAEHLLQKNKSFSLFATHYFELTYLPEAHAAAVNMHLSALEQGRDIVFLHQIQPGPAGKSYGIAVAKLAGLPVRALKAAQKHLNGLENQAAANRPQLDIFSTMPSEKGDEPNVDCFVDKAEEKHFEGILAAALENLDPDSLTPREALSELYRLKDLCKSVS
2 | binds | binds | MutL protein of N. gonorrhoeae FA1090, His-tagged, purified (plasmid pAK20) (natural protein, UniProt Q5F8M6 1-658, looked up, MutL of Neisseria gonorrhoeae FA1090; mutLNgo gene (1977 bp) amplified from chromosomal DNA with primers MutLfor/MutLNgoR and cloned into the NheI-HindIII sites of pET28a(+); The His-Tag at the amino terminus is encoded by the vector; also called MutLNgo; gonococcal MutL protein; source: E. coli BL21(DE3)pLys (pAK20), autoinduction, purified (Ni-NTA Agarose); not shown: His-Tag, N-terminal, kept) MPRIAALPDHLVNQIAAGEVVERPANALKEIVENSIDAGATAVDVELEGGGIRLIRVGDNGGGIHPDDIELALHRHATSKIKTLNDLEHVASMGFRGEGLASIASVSRLTLTSRQEDSSHATQVKAEDGKLSSPTAAAHPVGTTIEAAELFFNTPARRKFLKSENTEYAHCATMLERLALAHPHIAFSLKRDGKQVFKLPAQSLHERIAAIVGDDFQTASLEIDSGNSALRLYGAIAKPTFAKGKTDKQYCFVNHRFVRDKVMLHAVKQAYRDVLHNALTPAFVLFLELPPEAVDVNVHPTKTEIRFRDSRQVHQLVFHTLNKALADTRANLTESVSNAGEVLHDITGVTPAPMPSENDGENLFDSASNHPTGNKPDTRNAFGSSGKTAPMPYQAARAPQQHSLSLRESRAAMDTYAELYKKTDDIDLELSQFEQARFGNMPSETPAHKTDTPLSDGIPSQSELPPLGFAIAQLLGIYILAQAEDSLLLIDMHAAAERVNYEKMKRQRQENGNLQSQHLLIPVTFAASHEECAALADHAETLAGFGLELSDMGGNTLAVRAAPVMLGKSDVVSLARDVLGELAQVGSSQTIASHENRILATMSCHGSIRAGRRLTLPEMNALLRDMENTPRSNQCNHGRPTWVKLTLKELDTLFLRGQ

No constants are given. Whether binding was seen depends on the method and setting. Binding calls can cover weak binding; strength is not graded here. Tags and fused reporters may be left off the sequences shown.
